Test results from patent US20180371054A1.
Results are given in words; binding and its absence hold for the method and conditions named. Some binding calls cover weakened binding; strength is not graded here.

The chains behind the UniProt entries cited, without tags or fusion partners. Residues count along the entry.
UniProt P20273, residues 20-687: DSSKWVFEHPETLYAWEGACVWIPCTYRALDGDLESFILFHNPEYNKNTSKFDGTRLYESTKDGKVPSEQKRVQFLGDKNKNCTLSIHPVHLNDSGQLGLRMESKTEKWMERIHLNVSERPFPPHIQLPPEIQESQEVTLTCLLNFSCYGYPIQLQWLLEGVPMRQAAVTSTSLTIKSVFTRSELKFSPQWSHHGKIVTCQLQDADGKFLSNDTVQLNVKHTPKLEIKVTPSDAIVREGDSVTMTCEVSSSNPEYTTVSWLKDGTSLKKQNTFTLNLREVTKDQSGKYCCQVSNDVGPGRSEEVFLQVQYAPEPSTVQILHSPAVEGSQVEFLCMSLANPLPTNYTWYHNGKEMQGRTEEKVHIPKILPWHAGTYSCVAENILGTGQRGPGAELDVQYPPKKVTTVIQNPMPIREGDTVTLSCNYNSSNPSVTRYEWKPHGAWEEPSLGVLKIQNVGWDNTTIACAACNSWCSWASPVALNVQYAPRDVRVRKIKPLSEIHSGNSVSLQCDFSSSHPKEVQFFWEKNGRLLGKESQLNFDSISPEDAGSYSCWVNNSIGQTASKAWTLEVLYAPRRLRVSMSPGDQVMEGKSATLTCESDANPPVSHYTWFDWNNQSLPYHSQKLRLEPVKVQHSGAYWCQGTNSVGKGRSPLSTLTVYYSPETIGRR

Biological target: CD22 (human) (UniProt P20273)
Test: SPR (Biacore T200), scFv-Fc captured on anti-IgG CM5 chip, antigen injected

binding: binds
B1: Humanised CD22ALAb scFv (scFv, not shown: a dimerising Fc or GST)
scFv: EVQLVESGAEVKKPGSSVKVSCKASGYTFTNYWINWVRQAPGQGLEWIGNIYPSDSFTNYNQKFKDRATLTVDKSTSTAYLELRNLRSDDTAVYYCTRDTQERSWYFDVWGQGTLVTVSSDIVMTQSPATLSVSPGERATLSCRSSQSLVHSNGNTYLHWYQQKPGQAPRLLIYKVSNRFSGVPARFSGSGSGVEFTLTISSLQSEDFAVYYCSQSTHVPWTFGQGTRLEIK
